The values that follow come from US6190920A (The Regents of the University of California, priority 1997, dated 2001).

Strings that start with PEPTIDE1 are HELM notation: dots part the residues, brackets hold end groups and non-standard residues.

A short description of this data set: peptide synthesis. The following applies: late stage modification step.

Consider “PEPTIDE1{[Glm].T.R.S.L.[DR1Tyr].V}$PEPTIDE1,PEPTIDE1,7:R2-2:R3$$$V2.0”, for which the step yield is listed as 44%.
